Test results: the odorant receptor screen of Mainland et al. (2015)
Several values for one entry are separate records, joined by “and”; a condition that tells them apart may be missing. Identical values can stand only once. The list shows a part of the results. Single wells; the ratio to wells without odorant was worked out here, and repeats agree poorly.

Tests used:
Test in all cases: odorant receptor activation (CRE luciferase / Renilla) (fold of no-odor wells); higher = more activation
Conditions in all cases: 100 µM
[1] = tested on: OR10A2 H43R/H207R/K258T clone 1498
OR10A2 clone 1171 = tested on: OR10A2 clone 1171
OR10A3 clone 1416 = tested on: OR10A3 clone 1416
OR10A4 R262Q clone 1538 = tested on: OR10A4 R262Q clone 1538
OR10A5 clone 1723 = tested on: OR10A5 clone 1723
OR10A6 clone 1219 = tested on: OR10A6 clone 1219
OR10A7 clone 1252 = tested on: OR10A7 clone 1252
[2] = tested on: OR10AD1 R166Q/S177N/W198R clone 1524
OR10AG1 clone 1251 = tested on: OR10AG1 clone 1251
[3] = tested on: OR10C1 F60L/P174Q/M246V clone 1366
OR10C1 clone 1065 = tested on: OR10C1 clone 1065
OR10G3 S73G clone 1272 = tested on: OR10G3 S73G clone 1272
[4] = tested on: OR10G4 A9V/M134V/V195E/R235G/K295Q clone 1119
OR10G6 clone 1108 = tested on: OR10G6 clone 1108
OR10G7 clone 1589 = tested on: OR10G7 clone 1589
OR10G8 clone 1396 = tested on: OR10G8 clone 1396
[5] = tested on: OR10G9 A90T/M134V clone 1192
OR10H1 clone 1291 = tested on: OR10H1 clone 1291
OR10H2 L40Q clone 1461 = tested on: OR10H2 L40Q clone 1461
OR10H3 clone 1525 = tested on: OR10H3 clone 1525

Work on `CS` [methanethiol] yielded an odorant receptor activation [1] of 0.922, an odorant receptor activation (OR10A2 clone 1171) of 0.843 and an odorant receptor activation (OR10A3 clone 1416) of 0.641. It also gave an odorant receptor activation (OR10A4 R262Q clone 1538) of 0.912, an odorant receptor activation (OR10A5 clone 1723) of 0.819 and an odorant receptor activation (OR10A6 clone 1219) of 1.02. For the same molecule, the odorant receptor activation (OR10A7 clone 1252) was 0.864, the odorant receptor activation [2] was 0.899 and the odorant receptor activation (OR10AG1 clone 1251) was 0.837. It also gave an odorant receptor activation [3] of 0.849, an odorant receptor activation (OR10C1 clone 1065) of 1.05 and an odorant receptor activation (OR10G3 S73G clone 1272) of 0.896. The odorant receptor activation [4] was 0.983, the odorant receptor activation (OR10G6 clone 1108) was 0.821 and the odorant receptor activation (OR10G7 clone 1589) was 1.48. The odorant receptor activation (OR10G8 clone 1396) was 0.977, the odorant receptor activation [5] was 1.03 and the odorant receptor activation (OR10H1 clone 1291) was 0.876. For the same molecule, the odorant receptor activation (OR10H2 L40Q clone 1461) was 1.01 and the odorant receptor activation (OR10H3 clone 1525) was 0.984.

`CCCCOC(C)=O` [butyl acetate] gave an odorant receptor activation [1] of 0.948, an odorant receptor activation (OR10A2 clone 1171) of 1.08 and an odorant receptor activation (OR10A3 clone 1416) of 0.126. For the same molecule, the odorant receptor activation (OR10A4 R262Q clone 1538) was 1.03, the odorant receptor activation (OR10A5 clone 1723) was 0.337 and the odorant receptor activation (OR10A6 clone 1219) was 1.12. For the same molecule, the odorant receptor activation (OR10A7 clone 1252) was 0.825, the odorant receptor activation [2] was 0.931 and the odorant receptor activation (OR10AG1 clone 1251) was 1.09. The odorant receptor activation [3] was 0.173, the odorant receptor activation (OR10C1 clone 1065) was 1.21 and the odorant receptor activation (OR10G3 S73G clone 1272) was 0.772. For the same molecule, the odorant receptor activation [4] was 0.894, the odorant receptor activation (OR10G6 clone 1108) was 1.23 and the odorant receptor activation (OR10G7 clone 1589) was 0.272. The odorant receptor activation (OR10G8 clone 1396) was 0.33, the odorant receptor activation [5] was 1.07 and the odorant receptor activation (OR10H1 clone 1291) was 1.1. The odorant receptor activation (OR10H2 L40Q clone 1461) was 1.07 and the odorant receptor activation (OR10H3 clone 1525) was 0.846.

`CCC(C)=O` [2-butanone] was tested, and the odorant receptor activation [1] was 0.926, the odorant receptor activation (OR10A2 clone 1171) was 0.889 and the odorant receptor activation (OR10A3 clone 1416) was 1.05. For the same molecule, the odorant receptor activation (OR10A4 R262Q clone 1538) was 1.07, the odorant receptor activation (OR10A5 clone 1723) was 0.956 and the odorant receptor activation (OR10A6 clone 1219) was 0.504. For the same molecule, the odorant receptor activation (OR10A7 clone 1252) was 1.74, the odorant receptor activation [2] was 1.12 and the odorant receptor activation (OR10AG1 clone 1251) was 2.08. For the same molecule, the odorant receptor activation [3] was 1.47, the odorant receptor activation (OR10C1 clone 1065) was 3.38 and the odorant receptor activation (OR10G3 S73G clone 1272) was 1.47. For the same molecule, the odorant receptor activation [4] was 0.786, the odorant receptor activation (OR10G6 clone 1108) was 24.8 and the odorant receptor activation (OR10G7 clone 1589) was 1.28. The odorant receptor activation (OR10G8 clone 1396) was 0.792, the odorant receptor activation [5] was 0.845 and the odorant receptor activation (OR10H1 clone 1291) was 0.87. The odorant receptor activation (OR10H2 L40Q clone 1461) was 1.16 and the odorant receptor activation (OR10H3 clone 1525) was 1.15.

In the case of `CCOc1cc(C=O)ccc1O` [ethyl vanillin], the odorant receptor activation [1] is reported as 1.31 and 2.38 and 1.29, the odorant receptor activation (OR10A2 clone 1171) is reported as 2.13 and 0.984 and the odorant receptor activation (OR10A3 clone 1416) is reported as 1.29 and 1.31. The odorant receptor activation (OR10A4 R262Q clone 1538) was 1.56, the odorant receptor activation (OR10A5 clone 1723) was 0.836 and the odorant receptor activation (OR10A6 clone 1219) was 1.78 and 1.42. The odorant receptor activation (OR10A7 clone 1252) was 1.11 and 1.03, the odorant receptor activation [2] was 1.26 and 2.29 and 1.08 and the odorant receptor activation (OR10AG1 clone 1251) was 1.75 and 0.964. The odorant receptor activation [3] was 0.868 and 1.1, the odorant receptor activation (OR10C1 clone 1065) was 0.784 and 1.32 and the odorant receptor activation [4] was 4.1. The odorant receptor activation (OR10G6 clone 1108) was 1.15 and 1.18, the odorant receptor activation (OR10G7 clone 1589) was 1.07 and the odorant receptor activation (OR10G8 clone 1396) was 1.03 and 1.21. For the same molecule, the odorant receptor activation [5] was 3.23 and 1.38, the odorant receptor activation (OR10H1 clone 1291) was 2.01 and 1 and the odorant receptor activation (OR10H2 L40Q clone 1461) was 1.44 and 1.94 and 1.25. For the same molecule, the odorant receptor activation (OR10H3 clone 1525) was 1.14 and 2.14 and 1.18.
